Measured values as given in PMC3398883.
Results are given in words; binding and its absence hold for the method and conditions named. In cells and extracts the contact can be indirect. Some binding calls cover weakened binding; strength is not graded here.

Molecular target: YFP-XIAP (human) (UniProt P98170)
Assay: co-IP; HEK293T transfected with SHIP-1 constructs along with YFP-XIAP or YFP; lysis in 20 mM Tris-HCl pH 7.5, 135 mM NaCl, 1 mM EDTA, 0.5% NP-40, 10% glycerol; anti-GFP immunoprecipitation, 4°C; blots with anti-SHIP-1, anti-HA or anti-Myc

- binding: binds
B1: SHIP-1 full length protein (SHIP-1 WT) (protein, UniProt Q92835 1-1189)
chain: MVPCWNHGNITRSKAEELLSRTGKDGSFLVRASESISRAYALCVLYRNCVYTYRILPNEDDKFTVQASEGVSMRFFTKLDQLIEFYKKENMGLVTHLQYPVPLEEEDTGDDPEEDTVESVVSPPELPPRNIPLTASSCEAKEVPFSNENPRATETSRPSLSETLFQRLQSMDTSGLPEEHLKAIQDYLSTQLAQDSEFVKTGSSSLPHLKKLTTLLCKELYGEVIRTLPSLESLQRLFDQQLSPGLRPRPQVPGEANPINMVSKLSQLTSLLSSIEDKVKALLHEGPESPHRPSLIPPVTFEVKAESLGIPQKMQLKVDVESGKLIIKKSKDGSEDKFYSHKKILQLIKSQKFLNKLVILVETEKEKILRKEYVFADSKKREGFCQLLQQMKNKHSEQPEPDMITIFIGTWNMGNAPPPKKITSWFLSKGQGKTRDDSADYIPHDIYVIGTQEDPLSEKEWLEILKHSLQEITSVTFKTVAIHTLWNIRIVVLAKPEHENRISHICTDNVKTGIANTLGNKGAVGVSFMFNGTSLGFVNSHLTSGSEKKLRRNQNYMNILRFLALGDKKLSPFNITHRFTHLFWFGDLNYRVDLPTWEAETIIQKIKQQQYADLLSHDQLLTERREQKVFLHFEEEEITFAPTYRFERLTRDKYAYTKQKATGMKYNLPSWCDRVLWKSYPLVHVVCQSYGSTSDIMTSDHSPVFATFEAGVTSQFVSKNGPGTVDSQGQIEFLRCYATLKTKSQTKFYLEFHSSCLESFVKSQEGENEEGSEGELVVKFGETLPKLKPIISDPEYLLDQHILISIKSSDSDESYGEGCIALRLEATETQLPIYTPLTHHGELTGHFQGEIKLQTSQGKTREKLYDFVKTERDESSGPKTLKSLTSHDPMKQWEVTSRAPPCSGSSITEIINPNYMGVGPFGPPMPLHVKQTLSPDQQPTAWSYDQPPKDSPLGPCRGESPPTPPGQPPISPKKFLPSTANRGLPPRTQESRPSDLGKNAGDTLPQEDLPLTKPEMFENPLYGSLSSFPKPAPRKDQESPKMPRKEPPPCPEPGILSPSIVLTKAQEADRGEGPGKQVPAPRLRSFTCSSSAEGRAAGGDKSQGKPKTPVSSQAPVPAKRPIKPSRSEINQQTPPTPTPRPPLPVKSPAVLHLQHSKGRDYRDNTELPHHGKHRPEEGPPGPLGRTAMQ
